Reference: article PMC5741760
These are yes or no findings as the source states them, for the method shown.

Sequences of proteins named here, by UniProt entry; tags and fusion partners are left off. A change or cut given only in a name is not applied to a line headed by its entry.
UniProt Q60974: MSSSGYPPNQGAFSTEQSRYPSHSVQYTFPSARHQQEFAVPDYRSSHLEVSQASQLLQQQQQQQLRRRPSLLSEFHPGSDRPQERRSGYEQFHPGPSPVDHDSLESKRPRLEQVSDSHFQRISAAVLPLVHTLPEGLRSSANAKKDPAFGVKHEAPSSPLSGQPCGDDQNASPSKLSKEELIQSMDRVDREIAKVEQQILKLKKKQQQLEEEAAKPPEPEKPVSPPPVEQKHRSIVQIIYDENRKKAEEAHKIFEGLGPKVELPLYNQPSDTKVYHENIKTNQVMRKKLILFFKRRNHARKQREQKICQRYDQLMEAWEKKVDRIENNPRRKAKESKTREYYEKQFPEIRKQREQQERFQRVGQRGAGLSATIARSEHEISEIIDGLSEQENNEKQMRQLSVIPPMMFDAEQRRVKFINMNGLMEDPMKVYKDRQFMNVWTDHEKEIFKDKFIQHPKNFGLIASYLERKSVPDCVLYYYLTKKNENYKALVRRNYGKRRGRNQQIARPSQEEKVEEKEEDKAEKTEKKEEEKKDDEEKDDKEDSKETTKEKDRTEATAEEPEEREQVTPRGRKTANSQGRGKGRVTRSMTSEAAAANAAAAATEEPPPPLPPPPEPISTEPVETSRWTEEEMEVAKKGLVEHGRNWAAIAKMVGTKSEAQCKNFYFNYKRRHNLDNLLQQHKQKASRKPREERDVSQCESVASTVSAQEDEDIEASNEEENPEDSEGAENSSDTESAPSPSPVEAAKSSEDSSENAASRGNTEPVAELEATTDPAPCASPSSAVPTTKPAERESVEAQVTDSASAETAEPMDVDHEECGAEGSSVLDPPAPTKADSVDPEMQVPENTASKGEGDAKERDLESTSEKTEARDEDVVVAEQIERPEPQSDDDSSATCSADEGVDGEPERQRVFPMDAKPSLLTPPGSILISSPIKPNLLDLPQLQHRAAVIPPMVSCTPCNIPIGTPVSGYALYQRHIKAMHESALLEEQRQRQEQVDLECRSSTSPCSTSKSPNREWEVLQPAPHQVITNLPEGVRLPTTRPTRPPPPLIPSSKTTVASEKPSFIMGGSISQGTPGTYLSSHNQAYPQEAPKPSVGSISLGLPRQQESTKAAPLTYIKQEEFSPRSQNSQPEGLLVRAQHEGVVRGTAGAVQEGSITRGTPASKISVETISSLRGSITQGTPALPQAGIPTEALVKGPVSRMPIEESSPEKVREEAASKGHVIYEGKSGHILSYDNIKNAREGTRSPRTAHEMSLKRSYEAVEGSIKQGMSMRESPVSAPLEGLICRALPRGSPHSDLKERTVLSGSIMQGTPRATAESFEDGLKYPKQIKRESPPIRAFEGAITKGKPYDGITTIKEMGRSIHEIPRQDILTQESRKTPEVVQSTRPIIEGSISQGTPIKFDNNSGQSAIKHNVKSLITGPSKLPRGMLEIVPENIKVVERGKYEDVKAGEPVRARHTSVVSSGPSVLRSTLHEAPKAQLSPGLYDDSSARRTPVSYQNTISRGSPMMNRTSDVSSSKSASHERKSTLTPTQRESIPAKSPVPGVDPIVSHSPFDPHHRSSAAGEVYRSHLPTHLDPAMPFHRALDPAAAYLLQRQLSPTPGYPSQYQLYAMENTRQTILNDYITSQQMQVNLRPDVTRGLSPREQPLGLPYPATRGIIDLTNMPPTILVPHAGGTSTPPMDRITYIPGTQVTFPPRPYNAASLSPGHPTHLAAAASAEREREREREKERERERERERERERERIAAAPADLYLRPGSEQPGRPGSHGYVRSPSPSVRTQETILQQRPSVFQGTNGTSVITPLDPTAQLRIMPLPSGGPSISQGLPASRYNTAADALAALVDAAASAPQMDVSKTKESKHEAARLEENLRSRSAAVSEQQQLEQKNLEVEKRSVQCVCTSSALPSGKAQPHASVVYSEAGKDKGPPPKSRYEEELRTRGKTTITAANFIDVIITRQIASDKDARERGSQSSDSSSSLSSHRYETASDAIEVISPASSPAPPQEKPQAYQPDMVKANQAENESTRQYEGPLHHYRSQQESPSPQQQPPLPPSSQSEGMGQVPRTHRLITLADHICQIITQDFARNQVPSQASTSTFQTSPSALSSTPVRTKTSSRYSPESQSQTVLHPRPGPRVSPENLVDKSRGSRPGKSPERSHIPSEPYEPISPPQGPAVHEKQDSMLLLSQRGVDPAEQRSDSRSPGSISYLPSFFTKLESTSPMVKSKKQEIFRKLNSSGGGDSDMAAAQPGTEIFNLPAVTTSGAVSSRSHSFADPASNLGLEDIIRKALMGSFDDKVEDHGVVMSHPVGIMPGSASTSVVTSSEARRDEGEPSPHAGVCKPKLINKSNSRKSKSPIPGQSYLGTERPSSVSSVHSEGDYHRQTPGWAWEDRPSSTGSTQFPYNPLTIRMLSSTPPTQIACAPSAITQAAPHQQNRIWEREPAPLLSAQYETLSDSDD

Molecular target: T1, thyroid hormone receptor α1 (TRα1) (mouse (endogenous in bone marrow)) (UniProt P63058)
T1 sequence: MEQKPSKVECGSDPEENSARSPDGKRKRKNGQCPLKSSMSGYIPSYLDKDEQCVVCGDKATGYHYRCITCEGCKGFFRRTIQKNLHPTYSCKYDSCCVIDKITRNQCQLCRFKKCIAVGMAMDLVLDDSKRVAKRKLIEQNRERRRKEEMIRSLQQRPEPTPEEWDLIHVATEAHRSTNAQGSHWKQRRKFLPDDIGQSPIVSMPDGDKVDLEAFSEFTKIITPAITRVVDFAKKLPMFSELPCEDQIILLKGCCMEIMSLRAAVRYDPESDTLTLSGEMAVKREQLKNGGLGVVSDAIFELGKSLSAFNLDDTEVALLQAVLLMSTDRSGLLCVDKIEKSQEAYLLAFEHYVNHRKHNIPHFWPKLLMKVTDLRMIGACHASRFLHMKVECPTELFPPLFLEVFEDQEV
Assay: chromatin immunoprecipitation (ChIP); bone marrow cells of WT and mutant mice fixed in 1% formaldehyde, sheared, immunoprecipitated overnight at 4 °C with anti-NCOR1 (ab24552) or anti-HDAC3 antibody or IgG; qPCR of the TRE2 fragment upstream of Gata1; percentage of the input

- binding: no binding
Substance: NCOR1ΔID (product of the mutant Ncor1 ΔID allele) (from UniProt Q60974)
